Experimental findings from article doi:10.1101/2022.06.12.495191 are described below.

Results are given in words; binding and its absence hold for the method and conditions named. Binding calls can cover weak binding; strength is not graded here.

In the assay the target is T1, LFR (Arabidopsis) (UniProt Q9LS90).
T1 sequence: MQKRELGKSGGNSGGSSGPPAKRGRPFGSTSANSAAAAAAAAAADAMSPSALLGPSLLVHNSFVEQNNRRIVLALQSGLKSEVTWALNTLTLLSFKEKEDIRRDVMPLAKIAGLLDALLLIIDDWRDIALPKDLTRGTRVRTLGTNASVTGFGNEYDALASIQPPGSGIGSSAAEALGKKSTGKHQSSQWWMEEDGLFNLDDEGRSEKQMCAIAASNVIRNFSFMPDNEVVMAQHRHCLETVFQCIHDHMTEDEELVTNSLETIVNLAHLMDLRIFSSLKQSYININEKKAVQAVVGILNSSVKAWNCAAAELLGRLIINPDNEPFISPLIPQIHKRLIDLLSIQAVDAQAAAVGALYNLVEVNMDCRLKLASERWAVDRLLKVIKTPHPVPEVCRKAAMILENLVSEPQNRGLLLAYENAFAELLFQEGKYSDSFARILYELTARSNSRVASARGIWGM
As to the kind of experiment: two-hybrid.

Regarding “N-TPF1 (TPF1 amino acids 1-422) (Arabidopsis) (domain or fragment)”, the binding entry is recorded as “binds”.
